Experimental findings from PMC5356871 are described below.

The chains behind the UniProt entries cited, without tags or fusion partners.
UniProt P57059: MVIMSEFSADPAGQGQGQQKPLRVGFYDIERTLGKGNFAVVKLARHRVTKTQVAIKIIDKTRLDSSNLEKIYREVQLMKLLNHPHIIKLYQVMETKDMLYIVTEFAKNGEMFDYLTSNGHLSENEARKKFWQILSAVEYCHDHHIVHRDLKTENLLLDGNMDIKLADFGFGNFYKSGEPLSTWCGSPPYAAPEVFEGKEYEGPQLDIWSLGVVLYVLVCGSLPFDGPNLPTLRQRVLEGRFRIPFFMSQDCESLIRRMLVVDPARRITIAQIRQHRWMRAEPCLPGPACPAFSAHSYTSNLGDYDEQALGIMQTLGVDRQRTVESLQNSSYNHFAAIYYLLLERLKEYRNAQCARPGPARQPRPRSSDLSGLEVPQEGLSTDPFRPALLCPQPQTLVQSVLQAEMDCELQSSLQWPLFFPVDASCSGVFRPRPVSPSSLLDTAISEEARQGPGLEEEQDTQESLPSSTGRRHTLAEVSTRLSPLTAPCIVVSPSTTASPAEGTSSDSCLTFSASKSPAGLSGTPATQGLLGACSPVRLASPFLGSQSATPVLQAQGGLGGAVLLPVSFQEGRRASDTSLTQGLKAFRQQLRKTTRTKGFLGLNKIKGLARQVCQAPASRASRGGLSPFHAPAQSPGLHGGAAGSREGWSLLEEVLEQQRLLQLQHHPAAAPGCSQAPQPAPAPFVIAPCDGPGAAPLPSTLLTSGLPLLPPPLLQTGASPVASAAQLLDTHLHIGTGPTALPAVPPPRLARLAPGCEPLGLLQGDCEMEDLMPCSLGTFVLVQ
UniProt Q99496: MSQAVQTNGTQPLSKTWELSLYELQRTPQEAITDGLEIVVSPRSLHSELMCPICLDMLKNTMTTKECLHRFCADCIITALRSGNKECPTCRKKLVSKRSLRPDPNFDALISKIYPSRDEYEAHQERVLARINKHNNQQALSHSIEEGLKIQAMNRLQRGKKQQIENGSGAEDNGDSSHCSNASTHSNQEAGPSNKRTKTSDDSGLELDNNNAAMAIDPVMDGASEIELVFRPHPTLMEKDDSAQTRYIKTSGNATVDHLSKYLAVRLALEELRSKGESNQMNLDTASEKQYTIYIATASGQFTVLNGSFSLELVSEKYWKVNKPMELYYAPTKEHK

Results are given in words; binding and its absence hold for the method and conditions named. For part of these data: In cells and extracts the contact can be indirect. Some entries that bind do so weakly or less than the wild type.

The target of test [1] is Salt-inducible kinase 1 (SIK1), endogenous (human (endogenous in HCC cells)) (UniProt P57059). As to the kind of experiment: co-IP; HCC cell lysates in RIPA buffer with protease inhibitors, pre-cleared with protein-A/G sepharose; 2 ug anti-SIK1 or anti-RNF2 antibody with protein-G sepharose, 4 °C overnight; normal IgG as negative control; western blot. (Immunoblotting shows a protein as a band on a membrane.)

In test [2] the target is RNF2, endogenous (human (endogenous in HCC cells)) (UniProt Q99496). Described as above.
For test [3], the target named is GST-RNF2 (UniProt Q99496). As to the kind of experiment: pull-down; GST or GST-RNF2 coupled to GSH-Sepharose beads, incubated with purified His-SIK1; washed five times; SDS-PAGE and blot; both purified.

On to “RNF2, endogenous (from UniProt Q99496 1-336)”, for which, in test [1], the binding result is “binds”. As for “Salt-inducible kinase 1 (SIK1), endogenous (from UniProt P57059 1-783)”, the binding entry in test [2] is listed as “binds”. For the substance His-SIK1 (from UniProt P57059 1-783), in test [3], the binding entry is “binds”.
